Five molecules from article PMC11009390 can be followed below.

Protein sequences, listed by entry. Tags and fused reporters are not part of them.
UniProt P01100: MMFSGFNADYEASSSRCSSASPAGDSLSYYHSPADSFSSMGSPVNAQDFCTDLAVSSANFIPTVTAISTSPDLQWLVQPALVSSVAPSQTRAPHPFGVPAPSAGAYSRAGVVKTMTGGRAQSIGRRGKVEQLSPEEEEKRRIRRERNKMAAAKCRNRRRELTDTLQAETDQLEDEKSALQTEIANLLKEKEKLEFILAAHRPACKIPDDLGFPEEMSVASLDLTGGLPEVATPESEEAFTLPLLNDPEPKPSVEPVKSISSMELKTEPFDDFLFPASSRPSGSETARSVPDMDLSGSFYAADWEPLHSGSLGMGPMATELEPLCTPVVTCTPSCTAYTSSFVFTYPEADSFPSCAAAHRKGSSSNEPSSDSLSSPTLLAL

The target of assay [1] is p41Plk3, Dox-inducible, in HPNE cells (human) (UniProt Q9H4B4). Nature of the assay: proximity ligation; Duolink In Situ Red kit on fixed, permeabilised HPNE-Tet-p41Plk3 cells; rabbit anti-Plk3 and mouse anti-c-Fos antibodies, 4 °C overnight; dots per cell.
Assay [2] addresses Flag-Plk3NT^1-353 (p41Plk3) (human) (UniProt Q9H4B4). Nature of the assay: co-IP; 1 mg protein extract of cells (PANC-1) transfected with the Flag-tagged Plk3 construct, anti-Flag (M2) magnetic beads, 4 °C overnight; partner detected by Western blot.
Assay [3] shares this target. The assay is described as above. This is another data set of the same source.

Numbering of substitutions follows the chain as printed. In names and notes the source's numbering stands. Read-outs that look alike come from different tables or passages of the source. These are yes or no findings as the source states them, for the method shown. In cells and extracts the contact can be indirect. Some binding calls cover weakened binding; strength is not graded here.

In the case of “c-Fos (in HPNE cells) (from UniProt P01100 1-380)”, the binding entry in assay [1] was “binds”. On to “c-Fos (in PANC-1 cells) (from UniProt P01100 1-380)”, for which, in assay [2], the binding result is given as “binds”.

B1: Plk3CT^354-646 (domain or fragment, UniProt Q9H4B4 354-646)
chain: RKKKSKNHAQERDEVSGLVSGLMRTSVGHQDARPEAPAASGPAPVSLVETAPEDSSPRGTLASSGDGFEEGLTVATVVESALCALRNCIAFMPPAEQNPAPLAQPEPLVWVSKWVDYSNKFGFGYQLSSRRVAVLFNDGTHMALSANRKTVHYNPTSTKHFSFSVGAVPRALQPQLGILRYFASYMEQHLMKGGDLPSVEEVEVPAPPLLLQWVKTDQALLMLFSDGTVQVNFYGDHTKLILSGWEPLLVTFVARNRSACTYLASHLRQLGCSPDLRQRLRYALRLLRDRSPA
For B1, the binding result in assay [3] is recorded as “binds”.

B2: Plk3CT^354-646 P454R (domain or fragment, UniProt Q9H4B4 354-646)
chain: B1 chain with P101R
Consider B2, for which, in assay [3], the binding result is given as “binds”.

B3: Plk3CT^354-646 K473A (domain or fragment, UniProt Q9H4B4 354-646)
chain: B1 chain with K120A
Turning to B3, the binding result in assay [3] is given as “binds”.
